Measured values reported in patent US20120034232A1 (INNATE PHARMA, published 2012).
These are yes or no findings as the source states them, for the method shown.

By UniProt entry, the sequences of proteins in these tests, tags left out. Residues count along the entry.
UniProt O00206, residues 24-631: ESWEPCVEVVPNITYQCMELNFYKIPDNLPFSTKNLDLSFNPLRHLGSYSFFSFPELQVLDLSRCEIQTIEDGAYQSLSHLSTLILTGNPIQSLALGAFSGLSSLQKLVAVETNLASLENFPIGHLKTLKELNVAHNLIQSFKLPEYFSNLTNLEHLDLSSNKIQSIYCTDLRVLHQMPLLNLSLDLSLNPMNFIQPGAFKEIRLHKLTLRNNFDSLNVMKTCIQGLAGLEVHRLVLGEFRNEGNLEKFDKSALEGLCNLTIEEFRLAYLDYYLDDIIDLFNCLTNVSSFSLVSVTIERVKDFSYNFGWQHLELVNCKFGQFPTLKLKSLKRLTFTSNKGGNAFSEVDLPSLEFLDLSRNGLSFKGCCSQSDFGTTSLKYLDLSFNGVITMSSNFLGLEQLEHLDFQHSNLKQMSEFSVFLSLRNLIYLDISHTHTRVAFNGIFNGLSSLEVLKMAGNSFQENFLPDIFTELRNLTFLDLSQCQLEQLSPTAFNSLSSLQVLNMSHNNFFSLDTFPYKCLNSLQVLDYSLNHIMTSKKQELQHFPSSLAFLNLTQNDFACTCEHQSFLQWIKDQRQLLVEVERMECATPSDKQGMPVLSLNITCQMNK

Molecular target: His-tagged rec TLR4 protein (R&D systems, #3146-TR-050) (UniProt O00206)
Assay: condition: ratio above 10 for DO obtained in TLR3 ELISA to DO obtained in TLR4 ELISA; ELISA, His-tagged rec TLR4 on Ni-NTA plates, hybridoma supernatant

Row | binding | Binder
1 | no binding | anti-TLR3 monoclonal antibody 23C8 (antibody, V domains shown) VH: EVQLQQSGPELVKPGASVKISCKASGYSFTGYFMHWVKQSHVKSLEWIGRINPYNGATSYNQNFKDKASLTVDKSSSTSYMELHSLTSEDSAVYYCVRDDGGNYPFDYWGQGTTLTVS VL: DIQMTQSPASLSASVGETVTITCRASENIYSYLAWYQQKQGKSPQLLVYYAKTLAEGVPSRFSGSGTGTQFSLKINSLQPEDFGSYYCQHHYGTPYTFGGGTKLEIK
2 | no binding | anti-TLR3 monoclonal antibody 28F11 (antibody, V domains shown) VH: EVQLQQSGPELVKPGASVKISCKASGYSFTGYYIHWVKQSHVKSLEWIGRINPYYGATSYNQNFKDKANLTVDKSSSTAYMELHSLTSDDSAVYYCARSTKLGYLDYWGQGTTLTVS VL: DIQMTQSPASLSASVGETVTITCRASENIYSNLAWYQQKQGKSPQLLIYNAKTLAEGVPSRFSGSGSGTQYFLKINSLQPEDFGSYYCQHHYGTPFTFGGGTKLEIK
3 | no binding | anti-TLR3 monoclonal antibody 29H3 (antibody, V domains shown, also called 29H3.7; CNCM I-4187) VH: DVQLQESGPDLVKPSQSLSLTCTVTGYSITSGYSWHWIRQFLGNKLEWMGYIHYSGITNYNPSLRSRISFTRDTSKNQFFLQLNSVTTEDTATYYCARDGYYGMDYWGQGTSVTVS VL: DIVMTQSQKFMSTSVGDRVSITCKASQNVRTSVAWYQQKPGQSPKALIYLASNRHTGVPDRFTGSGSGTDFTLTVSNIQSEDLADYFCLQHWNYPYTFGGGTKLEIK
